In patent US7395112B2, “Method and apparatus for treating tumors using low strength electric fields” (priority 2002, dated 2008):

Tested on: CD3+, CD4+, CD8+ and CD19+ splenocytes
Assay: FACS analysis of splenic lymphocyte populations in treated DA3 tumor bearing mice
Format: in vivo, BALB/c mice
Details: LEF with the drug; 10-12 days following treatment

Row | Compound | splenic lymphocyte profiles of CD3+, CD4+, CD8+ and CD19 cells compared with untreated tumor bearing mice
1 | CC(=O)O[C@H]1C(=O)[C@@]2(C)[C@H]([C@H](OC(=O)c3ccccc3)[C@]3(O)C[C@H](OC(=O)[C@H](O)[C@@H](NC(=O)c4ccccc4)c4ccccc4)C(C)=C1C3(C)C)[C@]1(OC(C)=O)CO[C@@H]1C[C@@H]2O [taxol, paclitaxel] | normal, or more normal-like
2 | bleomycin | normal, or more normal-like
